Reference: the supplement of paper PMC8728848
The other results are listed elsewhere or left out.

Experiments:
Assay in all cases: glycan array binding signal (z-score within array); higher = stronger binding
Conditions in all cases: glycan notation: IUPAC condensed, linker removed
[1] = target: Fuc(a1-2)Gal6S(b1-3)GlcNAc
Summary of the method: (§1)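 Glycan array binding is given as a within-array Z-score, which can be read as non-binding when negative. The arrays, 3228 of them, came from the Consortium for Functional Glycomics database and were retained only where the protein sequence was available. Z-scores were averaged across arrays of the same protein sequence at different concentrations or buffers and across linkers.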

[2] = target: Fuc(a1-2)Gal6S(b1-3)GlcNAc6S
Summary of the method: as §1

[3] = target: Fuc(a1-2)Gal6S(b1-4)Glc
Summary of the method: as §1

[4] = target: Fuc(a1-2)Gal6S(b1-4)Glc6S
Summary of the method: as §1

[5] = target: Fuc(a1-2)[Gal(a1-3)]Gal
Summary of the method: as §1

[6] = target: Fuc(a1-2)[Gal(a1-3)]Gal(b1-3)GalNAc
Summary of the method: as §1

[7] = target: Fuc(a1-2)[Gal(a1-3)]Gal(b1-3)GalNAc(b1-3)Gal(a1-4)Gal(b1-4)Glc
Summary of the method: as §1

[8] = target: Fuc(a1-2)[Gal(a1-3)]Gal(b1-3)GlcNAc
Summary of the method: as §1

[9] = target: Fuc(a1-2)[Gal(a1-3)]Gal(b1-3)GlcNAc(b1-2)Man(a1-3)[Fuc(a1-2)[Gal(a1-3)]Gal(b1-3)GlcNAc(b1-2)Man(a1-6)]Man(b1-4)GlcNAc(b1-4)GlcNAc
Summary of the method: as §1

[10] = target: Fuc(a1-2)[Gal(a1-3)]Gal(b1-3)GlcNAc(b1-2)Man(a1-3)[Fuc(a1-2)[Gal(a1-3)]Gal(b1-3)GlcNAc(b1-2)Man(a1-6)]Man(b1-4)GlcNAc(b1-4)[Fuc(a1-6)]GlcNAc
Summary of the method: as §1

[11] = target: Fuc(a1-2)[Gal(a1-3)]Gal(b1-3)GlcNAc(b1-3)GalNAc
Summary of the method: as §1

[12] = target: Fuc(a1-2)[Gal(a1-3)]Gal(b1-3)GlcNAc(b1-6)GalNAc
Summary of the method: as §1

[13] = target: Fuc(a1-2)[Gal(a1-3)]Gal(b1-4)Glc
Summary of the method: as §1

[14] = target: Fuc(a1-2)[Gal(a1-3)]Gal(b1-4)GlcNAc
Summary of the method: as §1

[15] = target: Fuc(a1-2)[Gal(a1-3)]Gal(b1-4)GlcNAc(b1-2)Man
Summary of the method: as §1

[16] = target: Fuc(a1-2)[Gal(a1-3)]Gal(b1-4)GlcNAc(b1-2)Man(a1-3)[Fuc(a1-2)[Gal(a1-3)]Gal(b1-4)GlcNAc(b1-2)Man(a1-6)]Man(b1-4)GlcNAc(b1-4)GlcNAc
Summary of the method: as §1

[17] = target: Fuc(a1-2)[Gal(a1-3)]Gal(b1-4)GlcNAc(b1-2)Man(a1-3)[Fuc(a1-2)[Gal(a1-3)]Gal(b1-4)GlcNAc(b1-2)Man(a1-6)]Man(b1-4)GlcNAc(b1-4)[Fuc(a1-6)]GlcNAc
Summary of the method: as §1

[18] = target: Fuc(a1-2)[Gal(a1-3)]Gal(b1-4)GlcNAc(b1-3)GalNAc
Summary of the method: as §1

[19] = target: Fuc(a1-2)[Gal(a1-3)]Gal(b1-4)GlcNAc(b1-3)[Fuc(a1-2)[Gal(a1-3)]Gal(b1-4)GlcNAc(b1-6)]GalNAc
Summary of the method: as §1

[20] = target: Fuc(a1-2)[Gal(a1-3)]Gal(b1-4)GlcNAc(b1-6)GalNAc
Summary of the method: as §1

[21] = target: Fuc(a1-2)[Gal(a1-3)]Gal(b1-4)[Fuc(a1-3)]Glc
Summary of the method: as §1

[22] = target: Fuc(a1-2)[Gal(a1-3)]Gal(b1-4)[Fuc(a1-3)]GlcNAc
Summary of the method: as §1

[23] = target: Fuc(a1-2)[Gal(a1-3)]Gal(b1-4)[Fuc(a1-3)]GlcNAc(b1-3)GalNAc
Summary of the method: as §1

[24] = target: Fuc(a1-2)[Gal(a1-4)]Gal(b1-4)GlcNAc
Summary of the method: as §1

[25] = target: Fuc(a1-2)[GalNAc(a1-3)]Gal
Summary of the method: as §1

[26] = target: Fuc(a1-2)[GalNAc(a1-3)]Gal(b1-3)GalNAc(a1-3)[Fuc(a1-2)]Gal(b1-4)GlcNAc
Summary of the method: as §1

[27] = target: Fuc(a1-2)[GalNAc(a1-3)]Gal(b1-3)GalNAc(b1-3)Gal(a1-4)Gal(b1-4)Glc
Summary of the method: as §1

[28] = target: Fuc(a1-2)[GalNAc(a1-3)]Gal(b1-3)GlcNAc
Summary of the method: as §1

[29] = target: Fuc(a1-2)[GalNAc(a1-3)]Gal(b1-3)GlcNAc(b1-2)Man(a1-3)[Fuc(a1-2)[GalNAc(a1-3)]Gal(b1-3)GlcNAc(b1-2)Man(a1-6)]Man(b1-4)GlcNAc(b1-4)GlcNAc
Summary of the method: as §1

[30] = target: Fuc(a1-2)[GalNAc(a1-3)]Gal(b1-3)GlcNAc(b1-2)Man(a1-3)[Fuc(a1-2)[GalNAc(a1-3)]Gal(b1-3)GlcNAc(b1-2)Man(a1-6)]Man(b1-4)GlcNAc(b1-4)[Fuc(a1-6)]GlcNAc
Summary of the method: as §1

[31] = target: Fuc(a1-2)[GalNAc(a1-3)]Gal(b1-3)GlcNAc(b1-3)GalNAc
Summary of the method: as §1

[32] = target: Fuc(a1-2)[GalNAc(a1-3)]Gal(b1-3)GlcNAc(b1-6)GalNAc
Summary of the method: as §1

[33] = target: Fuc(a1-2)[GalNAc(a1-3)]Gal(b1-4)Glc
Summary of the method: as §1

[34] = target: Fuc(a1-2)[GalNAc(a1-3)]Gal(b1-4)GlcNAc
Summary of the method: as §1

[35] = target: Fuc(a1-2)[GalNAc(a1-3)]Gal(b1-4)GlcNAc(b1-2)Man
Summary of the method: as §1

[36] = target: Fuc(a1-2)[GalNAc(a1-3)]Gal(b1-4)GlcNAc(b1-2)Man(a1-3)[Fuc(a1-2)[GalNAc(a1-3)]Gal(b1-4)GlcNAc(b1-2)Man(a1-6)]Man(b1-4)GlcNAc(b1-4)GlcNAc
Summary of the method: as §1

[37] = target: Fuc(a1-2)[GalNAc(a1-3)]Gal(b1-4)GlcNAc(b1-2)Man(a1-3)[Fuc(a1-2)[GalNAc(a1-3)]Gal(b1-4)GlcNAc(b1-2)Man(a1-6)]Man(b1-4)GlcNAc(b1-4)[Fuc(a1-6)]GlcNAc
Summary of the method: as §1

[38] = target: Fuc(a1-2)[GalNAc(a1-3)]Gal(b1-4)GlcNAc(b1-3)Gal(b1-4)GlcNAc
Summary of the method: as §1

[39] = target: Fuc(a1-2)[GalNAc(a1-3)]Gal(b1-4)GlcNAc(b1-3)Gal(b1-4)GlcNAc(b1-3)Gal(b1-4)GlcNAc
Summary of the method: as §1

[40] = target: Fuc(a1-2)[GalNAc(a1-3)]Gal(b1-4)GlcNAc(b1-3)GalNAc
Summary of the method: as §1

[41] = target: Fuc(a1-2)[GalNAc(a1-3)]Gal(b1-4)GlcNAc(b1-3)[Fuc(a1-2)[GalNAc(a1-3)]Gal(b1-4)GlcNAc(b1-6)]GalNAc
Summary of the method: as §1

[42] = target: Fuc(a1-2)[GalNAc(a1-3)]Gal(b1-4)GlcNAc(b1-6)GalNAc
Summary of the method: as §1

[43] = target: Fuc(a1-2)[GalNAc(a1-3)]Gal(b1-4)[Fuc(a1-3)]GlcNAc
Summary of the method: as §1

[44] = target: Fuc(a1-2)[GalNAc(a1-3)]Gal(b1-4)[Fuc(a1-3)]GlcNAc(b1-3)GalNAc
Summary of the method: as §1

[45] = target: Fuc(a1-2)[GalNAc(a1-4)]Gal(b1-4)GlcNAc
Summary of the method: as §1

B1: cFel (Cyprinus carpio), P68512 (protein)
chain: LDCTVIDGNLKQIDAGSGSVVGVNNLNETFVLIDNVFTKISGSLKHFSVGPAGQLGVNTANNIFKYQSGGFVQLAGLLKQVDAGGDQIIAGVNMYDDIYCLNMDANNKWPSSNTPWVQINGKLKYYSCGPYSCWGVNSNDQIFIMKDVSSNVCSGSGSFINIPGLLSMIEVATDGSVFGVNSQGNLYQRTGVTRSKPDGTDWISMVACPNGHKHVSFDLGVLWLVCVDGSIRKCILTD
glycan array binding signal (z-score) [1]: 0.641 | glycan array binding signal (z-score) [2]: 0.952 | glycan array binding signal (z-score) [3]: -1.13 | glycan array binding signal (z-score) [4]: -0.731 | glycan array binding signal (z-score) [5]: 2.61 | glycan array binding signal (z-score) [6]: 0.606 | glycan array binding signal (z-score) [7]: -0.608 | glycan array binding signal (z-score) [8]: -0.322 | glycan array binding signal (z-score) [9]: -1.06 | glycan array binding signal (z-score) [10]: 0.642 | glycan array binding signal (z-score) [11]: 1.62 | glycan array binding signal (z-score) [12]: -0.813 | glycan array binding signal (z-score) [13]: 2.39 | glycan array binding signal (z-score) [14]: -1.2 | glycan array binding signal (z-score) [15]: -0.762 | glycan array binding signal (z-score) [16]: -1.02 | glycan array binding signal (z-score) [17]: -0.701 | glycan array binding signal (z-score) [18]: -0.365 | glycan array binding signal (z-score) [19]: 1.29 | glycan array binding signal (z-score) [20]: -0.377 | glycan array binding signal (z-score) [21]: -1.28 | glycan array binding signal (z-score) [22]: 0.163 | glycan array binding signal (z-score) [23]: 0.69 | glycan array binding signal (z-score) [24]: -0.624 | glycan array binding signal (z-score) [25]: -0.748 | glycan array binding signal (z-score) [26]: 1.01 | glycan array binding signal (z-score) [27]: -0.935 | glycan array binding signal (z-score) [28]: -0.173 | glycan array binding signal (z-score) [29]: 0.309 | glycan array binding signal (z-score) [30]: 3.12 | glycan array binding signal (z-score) [31]: -2.04 | glycan array binding signal (z-score) [32]: 2.93 | glycan array binding signal (z-score) [33]: -0.564 | glycan array binding signal (z-score) [34]: -0.741 | glycan array binding signal (z-score) [35]: -1.18 | glycan array binding signal (z-score) [36]: 0.117 | glycan array binding signal (z-score) [37]: -0.798 | glycan array binding signal (z-score) [38]: -0.966 | glycan array binding signal (z-score) [39]: 0.538 | glycan array binding signal (z-score) [40]: 1.01 | glycan array binding signal (z-score) [41]: 1.31 | glycan array binding signal (z-score) [42]: 0.59 | glycan array binding signal (z-score) [43]: -1.53 | glycan array binding signal (z-score) [44]: -0.096 | glycan array binding signal (z-score) [45]: 0.222
